These are yes or no findings as the source states them, for the method shown. Some results given as binding are weak or reduced against the parent protein; the word gives no strength.
Target: human heat shock protein Hsp90α (human) (UniProt P07900)
Experiment: dot blot assay, direct interaction with Hsp90α

B1: Lpl1 native protein (267 aa), Staphylococcus aureus USA300 (protein)
chain: CGKGNETKEDSKEEQIKKSFAITLDMYPIKNLEDLYDKEGYRDSEFKKGDKGMWTIYTDFAKSNKPGELDDEGMVLNLDRNTRTAKGHYFVTTFYRNGKLPDEKNYKIEMKNNKIILLDEVKDDKLKQKIENFKFFGQYANLKELRKYNNGDVSINENVPSYDVEYKMSNKDEIVKELRSRYNISTEKSPILKMHIDGDLKGSSVGYRKLEIDFSKRENSKLSVIEFLSYKPAKK
binding: binds

— patent EP4201483A1, “LPL1 DERIVED IMMUNE ENHANCING PEPTIDES” (priority 2021, dated 2023)
